Assay: lung retention after intratracheal administration (lung homogenate, plasma)
Type: in vivo
Conditions: guinea pig lung; intratracheal 10 nmol/kg
Experimental: Lung retention was measured by means of two parameters: […] MRTL and […]/C0.5L (%) are two meaningful and predictive parameters of the duration of a drug's effect after single dose pulmonary administration. In addition to having high lung retention no plasma levels of the present compounds were detected. […] Therefore, potential undesirable secondary effects in other tissues could be avoided.

CC(C)[N+]1(C)[C@@H]2CC[C@H]1CC(OC(=O)C(CO)c1ccccc1)C2.[Br-] (stereo partly shown) [ipratropium bromide]
MRTL (Mean Residence Time in the Lung): 3.9 h

Source: patent US7838534B2, “Quinuclidine derivatives as M3 antagonists” (Chiesi Farmaceutici S.p.A., priority 2006, dated 2010)
